Data as given in article PMC7819943, “Rice protein-binding microarrays: a tool to detect cis-acting elements near promoter regions in rice”.
The list shows a part of the results.

Biological target: T1, OsSMF1 (Oryza sativa, UniProt Q6ZLB0 1-436)
T1 sequence: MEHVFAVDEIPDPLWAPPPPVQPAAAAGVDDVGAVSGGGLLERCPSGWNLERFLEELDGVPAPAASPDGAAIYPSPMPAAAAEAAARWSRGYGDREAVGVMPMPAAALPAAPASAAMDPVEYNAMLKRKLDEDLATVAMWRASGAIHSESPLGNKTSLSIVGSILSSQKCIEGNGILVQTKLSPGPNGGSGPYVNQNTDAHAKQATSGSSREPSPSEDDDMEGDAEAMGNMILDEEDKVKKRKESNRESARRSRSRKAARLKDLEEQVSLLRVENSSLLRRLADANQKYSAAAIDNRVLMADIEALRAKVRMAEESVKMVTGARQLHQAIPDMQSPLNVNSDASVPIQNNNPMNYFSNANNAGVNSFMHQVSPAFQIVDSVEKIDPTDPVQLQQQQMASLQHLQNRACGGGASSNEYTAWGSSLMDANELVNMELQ
Assay: protein-binding microarray (RPBM); PBS, 2% BSA, 51.3 ng/ul salmon testes DNA, 50 uM zinc acetate, 200 nM TF, 25 C, 1 h; high values mean tight binding
Conditions: protein: recombinant; tags: N-terminal polyhistidine and DsRed monomer fusion (pET32a); chain copies: 2; label: CyDye5-dUTP incorporated in the synthesized complementary strand; 3' TTTTT single-stranded linker to array surface; dsDNA, one strand shown
Method in brief: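 A custom Agilent array was converted to double-stranded form by primer extension with Cy5-dUTP and blocked with 2% BSA. Protein at 200 nM in PBS with 2% BSA, salmon testes DNA and 50 µM zinc acetate was applied for 1 h at 25 °C, followed by washing. The proteins were polyhistidine–DsRed N-terminal fusions of transcription factors, expressed in E. coli BL21-CodonPlus and Ni–NTA-purified. The binding signal is per-feature fluorescence intensity (arbitrary units) from an Axon 4000B scanner.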

Sequence | binding signal
CCCCATGACAAGTCCACATAAGTCTTCAAATACTGCTCGACGGAGTCACCTAGTGCAG | 4180 fluorescence intensity (a.u.)
GAGAAGGTTAGGCTTGGGCGTGGTGTGGTGTTGGTGGGTGCGGAGTCACCTAGTGCAG | 3230 fluorescence intensity (a.u.)
TCCAGCACACACGCCGCACACGCGTACACCCAAGTTGCCTCGGAGTCACCTAGTGCAG | 4160 fluorescence intensity (a.u.)
CGTAGCCCATTACGTGGGTCCACCGCCACGCCTACCCATTCGGAGTCACCTAGTGCAG | 25700 fluorescence intensity (a.u.)
ATGCTATATAAATGCCACGTTGTGCGAAGACCAAGTCAACCGGAGTCACCTAGTGCAG | 3510 fluorescence intensity (a.u.)
GCAAAAGCATCTTGGAGGAGATACAGTCAGCTGGCAATCCCGGAGTCACCTAGTGCAG | 4160 fluorescence intensity (a.u.)
AGAGCCAAACAAAATAGGGAAGTTCTAAATTAAATAACATCGGAGTCACCTAGTGCAG | 27600 fluorescence intensity (a.u.)
ACTTATTATGCAACTGTGATGATGTAACTGTGATGTTTATCGGAGTCACCTAGTGCAG | 3190 fluorescence intensity (a.u.)
TTGGCTGGAGCATCGTCACTACTATTCGACACTAAGGTGTCGGAGTCACCTAGTGCAG | 3240 fluorescence intensity (a.u.)
CAACTCCGCTCGCCAATCCACAGCTGGCCTCCATTTCTTCCGGAGTCACCTAGTGCAG | 24000 fluorescence intensity (a.u.)
GTCGCTGGCCTCGGTGAATCCGTGCGCCGCGGCGGCTTCGCGGAGTCACCTAGTGCAG | 3340 fluorescence intensity (a.u.)
TTAATTATTAAATTCTTTTCACTGTCTACTACTTGTTCCGCGGAGTCACCTAGTGCAG | 22300 fluorescence intensity (a.u.)
CAGTCGAAAGCGTACGGACCCAGGAGAGTTGCTGACTCAGCGGAGTCACCTAGTGCAG | 17700 fluorescence intensity (a.u.)
TCATAAGTACTCGTATACCGACACGATAGTTAACTCATTCCGGAGTCACCTAGTGCAG | 3420 fluorescence intensity (a.u.)
AAAGAATATGCTGACCATTAGGCCATTAATCTTGCCCGCGCGGAGTCACCTAGTGCAG | 3140 fluorescence intensity (a.u.)
CAGCTAGGATAATTGAGAGTTGACACGTAAGGCAGCTTCGCGGAGTCACCTAGTGCAG | 13800 fluorescence intensity (a.u.)
ACTTGATCAGCACACTCTGGTGACATGACAGCTGTAAAGTCGGAGTCACCTAGTGCAG | 4180 fluorescence intensity (a.u.)
CGAGGAGCGGGGTGGGGTCGGAGGCGGGGAGGGAGGACGCCGGAGTCACCTAGTGCAG | 4780 fluorescence intensity (a.u.)
TCAAGGGAGATGGAGGGTTGCAGCGGCGGCGGAGGGGCGGCGGAGTCACCTAGTGCAG | 5320 fluorescence intensity (a.u.)
GTTGTACTGTGCTCATCGGCGCCACACGTCGCGGTGCATGCGGAGTCACCTAGTGCAG | 3330 fluorescence intensity (a.u.)
CTAGTAAGCATTGATCATGCATTTCTAAACTCAATGGCTGCGGAGTCACCTAGTGCAG | 3280 fluorescence intensity (a.u.)

Rewritten with tabs: part of the list above
Sequence	binding signal
CCCCATGACAAGTCCACATAAGTCTTCAAATACTGCTCGACGGAGTCACCTAGTGCAG	4180 fluorescence intensity (a.u.)
ACTTATTATGCAACTGTGATGATGTAACTGTGATGTTTATCGGAGTCACCTAGTGCAG	3190 fluorescence intensity (a.u.)

Next records.

Sequence | binding signal
TCGTCCGCTCCGCTTCAGCGAATCGGCACCGCCGCGTGTCCGGAGTCACCTAGTGCAG | 3640 fluorescence intensity (a.u.)
AGTGATCAGAATTCAGACATTATACTGTTCTATGATAATACGGAGTCACCTAGTGCAG | 38000 fluorescence intensity (a.u.)
ACACATCCAGCTCCTACCTCTCCTGAATCGCTCGTCAGATCGGAGTCACCTAGTGCAG | 3810 fluorescence intensity (a.u.)
TCATTCGTGATTTACAAGTGCCTTGACACAGGCAAGATTGCGGAGTCACCTAGTGCAG | 3510 fluorescence intensity (a.u.)
GAGTTGCAGTGCGTGTGCTAGCTGCAAGAGAGCTAGCTAGCGGAGTCACCTAGTGCAG | 36300 fluorescence intensity (a.u.)
GCCGAGCTCGCCGTACCCCGCCGCGTGTGCCTCCCGCCGCCGGAGTCACCTAGTGCAG | 5180 fluorescence intensity (a.u.)
TATGTTCATTTCCTTATTTGCCTCTCGTCATGTCTCTTGACGGAGTCACCTAGTGCAG | 3420 fluorescence intensity (a.u.)
AATGACTCACTGATTTGTTTAGATGATCGATTAATTGCATCGGAGTCACCTAGTGCAG | 4540 fluorescence intensity (a.u.)
GACGTTAGCAGGGATGACCAAAAGGTTGATAGACTCGCGACGGAGTCACCTAGTGCAG | 27300 fluorescence intensity (a.u.)
AAATTTTAACTTATAGTGACGTGGACGAATCTCGAATGTCCGGAGTCACCTAGTGCAG | 17200 fluorescence intensity (a.u.)
GTCCTTCACATTACAACTTGTGATTCATGCCCCGTAATGGCGGAGTCACCTAGTGCAG | 3240 fluorescence intensity (a.u.)
TCCCTAACCCCAACCTCCGCAGCAAGCTCCACCACTTTGCCGGAGTCACCTAGTGCAG | 3350 fluorescence intensity (a.u.)
TTTGTTCCTCGATACATGACAATATATCACAAGCGACTATCGGAGTCACCTAGTGCAG | 3560 fluorescence intensity (a.u.)
TCGCCGCCCAGATCCAGCAGCTCAAGAACACCGCCGGCGACGGAGTCACCTAGTGCAG | 3350 fluorescence intensity (a.u.)
TAAATTTAGTTAATATGACATGTAAGCGCACTGTAATTTTCGGAGTCACCTAGTGCAG | 4280 fluorescence intensity (a.u.)
CTTCCCATTTCAATTTTCCTTTTCCCCTCATAAAATCACTCGGAGTCACCTAGTGCAG | 3360 fluorescence intensity (a.u.)
CAAGCACACCAGACACCACACCGAGCCCGCCACGTCCACCCGGAGTCACCTAGTGCAG | 9430 fluorescence intensity (a.u.)
TATATAGTTTTGGTAAAGAACATATTGATGACTCCTATTTCGGAGTCACCTAGTGCAG | 3580 fluorescence intensity (a.u.)
AGTTGATCGGTTGATGCGCTGTCTTTGTTGTTTTGTGGAACGGAGTCACCTAGTGCAG | 3810 fluorescence intensity (a.u.)
GGCGGCGGCATCTCCTGGCGGCTCCCGTCCATGGCCGCTGCGGAGTCACCTAGTGCAG | 6760 fluorescence intensity (a.u.)
CCTCCATCGATCGATCGTCTGCGATCCTTGTCACGGCTTGCGGAGTCACCTAGTGCAG | 3470 fluorescence intensity (a.u.)
